Laboratory results: the supplement of paper PMC11542785
Counter-ions that a name gives are not always drawn. The list shows a part of the results. Repeats are few or missing, and single values can be far off.

Test system: Drosophila melanogaster DPAGT1 (Alg7) RNAi eye model
Assay: eye size Z-score vs DMSO-treated DPAGT1 model flies; higher = larger eye (suppression of DPAGT1 phenotype)
Conditions: 5 uM

CCC1(C)CC(=O)NC(=O)C1 [Bemegride]
eye size Z-score: -0.74

CCCC(C)(COC(N)=O)COC(=O)NC(C)C (stereo not given) [Carisoprodol]
eye size Z-score: 0.98

C[N+]1(C)CCCC(OC(=O)C(O)(c2ccccc2)c2ccccc2)C1 (stereo not given) [Mepenzolate bromide]
eye size Z-score: -0.86

OC(c1ccccc1)(c1ccccc1)C1CCNCC1 [Azacyclonol]
eye size Z-score: 0.41

CCC1(c2ccc(N)cc2)CCC(=O)NC1=O (stereo not given) [Glutethimide, para-amino]
eye size Z-score: 0.73

CCN(C)C(=O)Oc1cccc([C@H](C)N(C)C)c1 [Rivastigmine]
eye size Z-score: 0.09

CC[C@@]1([C@@H]2O[C@@H]([C@H]3O[C@@](O)(CO)[C@H](C)C[C@@H]3C)C[C@@H]2C)CC[C@H]([C@]2(C)CC[C@]3(C[C@H](O)[C@@H](C)[C@@H]([C@@H](C)[C@@H](OC)[C@H](C)C(=O)O)O3)O2)O1 [Monensin sodium salt]
eye size Z-score: 0.15

CN(C)C(=O)Oc1cc(OC(=O)N(C)C)cc(C(O)CNC(C)(C)C)c1 (stereo not given) [Bambuterol hydrochloride]
eye size Z-score: 0.63

C[C@]12CC[C@H](O)C[C@@H]1CC[C@@H]1[C@@H]2CC[C@]2(C)C(=O)CC[C@@H]12 [Epiandrosterone]
eye size Z-score: -0.2

CCn1cc(C(=O)O)c(=O)c2cc3c(cc21)OCO3 [Oxolinic acid]
eye size Z-score: 0.16

CN1[C@@H]2CC[C@H]1C[C@@H](OC1c3ccccc3CCc3ccccc31)C2 [Deptropine citrate]
eye size Z-score: 0.58

C[C@]12CC[C@@H]3c4ccc(OC(=O)N(CCCl)CCCl)cc4CC[C@H]3[C@@H]1CC[C@@H]2O [Estramustine]
eye size Z-score: 0.04

COc1ccc(CCN2CCC(Nc3nc4ccccc4n3Cc3ccc(F)cc3)CC2)cc1 [Astemizole]
eye size Z-score: 0.13

CC(=O)O[C@H]1C[C@H](O[C@H]2[C@@H](O)C[C@H](O[C@H]3[C@@H](O)C[C@H](O[C@H]4CC[C@@]5(C)[C@H](CC[C@@H]6[C@@H]5C[C@@H](O)[C@]5(C)[C@@H](C7=CC(=O)OC7)CC[C@]65O)C4)O[C@@H]3C)O[C@@H]2C)O[C@H](C)[C@H]1O[C@@H]1O[C@H](CO)[C@@H](O)[C@H](O)[C@H]1O [Lanatoside C]
eye size Z-score: 0

Oc1cc(Cl)ccc1Oc1ccc(Cl)cc1Cl [Triclosan]
eye size Z-score: 0.53

C[N+]1([O-])[C@@H]2C[C@@H](OC(=O)[C@H](CO)c3ccccc3)C[C@H]1[C@@H]1O[C@@H]12 (stereo not given in full) [Scopolamin-N-oxide hydrobromide]
eye size Z-score: -1.37

CCN(CC)C(C)C(=O)c1ccccc1 (stereo not given) [Amfepramone hydrochloride]
eye size Z-score: 0.96

COc1ccc(Cc2nccc3cc(OC)c(OC)cc23)cc1OC [Papaverine hydrochloride]
eye size Z-score: -0.41

CCC1(CC)C(=O)C=CNC1=O [Pyrithyldione]
eye size Z-score: 0.56

CC(C)(C)NCC(O)c1cc(Cl)c(N)c(Cl)c1 (stereo not given) [Clenbuterol hydrochloride]
eye size Z-score: 2.09

Fc1ccc(C(OCCN2CCN(CCCc3ccccc3)CC2)c2ccc(F)cc2)cc1
eye size Z-score: 0.51

COc1cc([C@@H]2c3cc4c(cc3[C@H](O)[C@H]3COC(=O)[C@H]23)OCO4)cc(OC)c1OC [Podophyllotoxin]
eye size Z-score: -0.1

CCNC1(c2cccs2)CCCCC1=O (stereo not given) [Tiletamine hydrochloride]
eye size Z-score: 0.01

C[C@@H]1CC[C@H]2[C@@H](C)C(=O)O[C@@H]3O[C@@]4(C)CC[C@@H]1[C@]32OO4 [Artemisinin]
eye size Z-score: 0.65

CCC1(c2cccc(O)c2)CCCCN(C)C1 (stereo not given) [Meptazinol hydrochloride]
eye size Z-score: 0.09

NCCc1c[nH]c2ccc(O)cc12 [Serotonin hydrochloride]
eye size Z-score: 0.57

CCN(C(C)=O)c1cccc(-c2ccnc3c(C#N)cnn23)c1 [Zaleplon]
eye size Z-score: -0.88

CCC(COC(=O)c1cc(OC)c(OC)c(OC)c1)(c1ccccc1)N(C)C (stereo not given) [Trimebutine]
eye size Z-score: 0.56

CC(=O)OCC1=C(C(=O)O)N2C(=O)[C@@H](N)[C@H]2SC1 [Cephalosporanic acid, 7-amino]
eye size Z-score: -1.21

CO[C@]12C[C@@H](COC(=O)c3cncc(Br)c3)CN(C)[C@@H]1Cc1cn(C)c3cccc2c13 [Nicergoline]
eye size Z-score: -0.23

C[N+]12CCC(CC1)C(OC(=O)C(O)(c1ccccc1)c1ccccc1)C2 (stereo not given) [Clidinium bromide]
eye size Z-score: -0.1

C[C@]12Cc3c[nH]nc3C[C@@H]1CC[C@@H]1[C@@H]2CC[C@@]2(C)[C@H]1CC[C@]2(C)O [Stanozolol]
eye size Z-score: -0.03

C#C[C@]1(O)C=C[C@H]2[C@@H]3CCC4=CC(=O)CC[C@@H]4[C@H]3CC[C@@]21CC [Gestodene]
eye size Z-score: 0.62

CC(C)C[C@H](CN)CC(=O)O [Pregabalin]
eye size Z-score: -0.22

CC(C)(C)NCC(O)c1ccccc1Cl (stereo not given) [Tulobuterol hydrochloride]
eye size Z-score: 0.04

CC(C)(C)NCC(O)c1ccccc1Cl (stereo not given) [Tulobuterol Hydrochloride]
eye size Z-score: -0.47

CC(C)c1c(CN(C)C(C)Cc2ccccc2)n(C)n(-c2ccccc2)c1=O (stereo not given) [Famprofazone]
eye size Z-score: -0.19

C=C(C)[C@@H]1[C@H]2OC(=O)[C@@H]1[C@]1(O)C[C@H]3O[C@]34C(=O)O[C@H]2[C@]14C [Picrotoxinin]
eye size Z-score: -0.33

NC(=O)CN1CCCC1=O [Piracetam]
eye size Z-score: 0.77

CC(=O)OCC(=O)[C@H]1CC[C@H]2[C@@H]3CC[C@H]4C[C@H](O)CC[C@]4(C)[C@H]3C(=O)C[C@]12C [Alfadolone acetate]
eye size Z-score: -0.28

CN1CCN(C(=O)OC2c3nccnc3C(=O)N2c2ccc(Cl)cn2)CC1 (stereo not given) [Zopiclone]
eye size Z-score (female): -1.18

Clc1ccc(C(OCCN2CCCCC2)c2ccccc2)cc1 (stereo not given) [Cloperastine hydrochloride]
eye size Z-score: 0

O=C(O[C@H]1C[N+]2(CCCOc3ccccc3)CCC1CC2)C(O)(c1cccs1)c1cccs1 [Aclidinium bromide]
eye size Z-score: 0.23

CC(Cc1ccccc1)NCCC(c1ccccc1)c1ccccc1 (stereo not given) [Prenylamine lactate]
eye size Z-score: 0.97

C[C@]12CC[C@H](O)C[C@H]1CC[C@@H]1[C@@H]2C[C@@H](O)[C@]2(C)[C@@H](C3=CC(=O)OC3)CC[C@]12O [Digoxigenin]
eye size Z-score: -0.16

NC(=O)C[S+]([O-])C(c1ccccc1)c1ccccc1 (stereo not given) [Modafinil]
eye size Z-score: -1.1

CN1C(=O)COc2c(C(=O)NC3CN4CCC3CC4)cc(Cl)cc21 (stereo not given) [Azasetron hydrochloride]
eye size Z-score: 0.74

Cc1cccc(C)c1NC1=NCCCS1 [Xylazine]
eye size Z-score (female): 1.11

COc1ccc2c(c1)[C@]13CCCC[C@@H]1[C@H](C2)N(C)CC3 [Dextromethorphan hydrobromide monohydrate]
eye size Z-score (female): 0.8

C=CC[C@]1(O)CC[C@H]2[C@@H]3CCC4=CC(=O)CCC4=C3C=C[C@@]21C [Altrenogest]
eye size Z-score: 0.3

CC(Cc1ccc(O)cc1)NCC(O)c1cc(O)cc(O)c1 (stereo not given) [Fenoterol hydrobromide]
eye size Z-score: 0.07

C1CCc2nnnn2CC1 [Pentylenetetrazole]
eye size Z-score: 0.83

CC(C)CC(N(C)C)C1(c2ccc(Cl)cc2)CCC1 (stereo not given) [Sibutramine hydrochloride]
eye size Z-score: -0.01

O=c1[nH]c2ccccc2n1CCCN1CCC(n2c(=O)[nH]c3cc(Cl)ccc32)CC1 [Domperidone]
eye size Z-score: 0.24

O=C([O-])c1ccccc1-c1c2cc(Br)c(=O)cc-2oc2[c]([Hg+])c([O-])c(Br)cc12.[Na+].[Na+].[OH-] [Merbromin disodium salt]
eye size Z-score: 0.07

CC(C)[N+](C)(CCC(C(N)=O)(c1ccccc1)c1ccccc1)C(C)C [Isopropamide iodide]
eye size Z-score: 0.29

C#C[C@]1(O)CC[C@H]2[C@@H]3CCC4=CC(=O)CC[C@]4(C)[C@H]3CC[C@@]21C [Ethisterone]
eye size Z-score: 0.39

S=C(NC1CCCCC1)N1CCC(c2cnc[nH]2)CC1 [Thioperamide maleate]
eye size Z-score: -1.31

C=CC[C@]1(O)CC[C@H]2[C@@H]3CCC4=CCCC[C@@H]4[C@H]3CC[C@@]21C [Allylestrenol]
eye size Z-score: -0.51

C=C[C@H]1CN2CC[C@H]1C[C@H]2[C@H](OC(=O)OCC)c1ccnc2ccc(OC)cc12 [Quinine ethyl carbonate]
eye size Z-score: 0.7

C[C@]12CC[C@H]3[C@@H](CCC4=CC(=O)CC[C@@H]43)[C@@H]1CC[C@@H]2O [Nandrolone]
eye size Z-score: 1.39

C[C@]12C=CC(=O)C=C1CC[C@@H]1[C@@H]2CC[C@@]2(C)[C@H]1CC[C@]2(C)O [Methandrostenolone]
eye size Z-score: 0.67

COc1ccc(CN2CCNCC2)c(OC)c1OC [Trimetazidine dihydrochloride]
eye size Z-score: 0.38

CC(C)N(CCC(C(N)=O)(c1ccccc1)c1ccccn1)C(C)C (stereo not given) [Disopyramide]
eye size Z-score: -0.45

C[C@H](N)[C@H](O)c1ccc(O)c(O)c1 [Levonordefrin]
eye size Z-score: 0.36

O=[N+]([O-])O[C@@H]1CO[C@H]2[C@@H]1OC[C@@H]2O [Isosorbide mononitrate]
eye size Z-score: 0.1

CN[C@@H]1C[C@@H](c2ccc(Cl)c(Cl)c2)c2ccccc21 [Indatraline hydrochloride]
eye size Z-score: 0.97

CN1[C@@H]2CC[C@H]1C[C@@H](OC(=O)[C@H](CO)c1ccccc1)C2 [(L) Hyoscyamine]
eye size Z-score: -0.47

CCC(=O)O[C@@](Cc1ccccc1)(c1ccccc1)[C@@H](C)CN(C)C [Levopropoxyphene napsylate]
eye size Z-score: -0.23

C[N+](C)(C)CCCCCCCCCC[N+](C)(C)C [Decamethonium bromide]
eye size Z-score: 1.35

CN1C[C@H](C(=O)N[C@]2(C)O[C@@]3(O)[C@@H]4CCCN4C(=O)[C@H](Cc4ccccc4)N3C2=O)C[C@@H]2c3cccc4[nH]cc(c34)C[C@H]21 [Dihydroergotamine tartrate]
eye size Z-score: -0.04

C[N+]1(C)[C@@H]2CC[C@H]1C[C@@H](OC(=O)C(CO)c1ccccc1)C2 (stereo not given in full) [Methylatropine nitrate]
eye size Z-score: -0.68

COc1cccc(C2(O)CCCCC2CN(C)C)c1 (stereo not given) [Tramadol hydrochloride]
eye size Z-score: -0.46

CC(CCc1ccccc1)NC(C)C(O)c1ccc(O)cc1 (stereo not given) [Nylidrin]
eye size Z-score: 0.55

CC(=O)OC1CN2CCC1CC2 (stereo not given) [Aceclidine hydrochloride]
eye size Z-score: -0.75

CCCN1C[C@H](CSC)C[C@@H]2c3cccc4[nH]cc(c34)C[C@H]21 [Pergolide mesylate]
eye size Z-score: 0.14

C[C@]12CCC(=O)C=C1CC[C@@H]1[C@@H]2C(=O)C[C@]2(C)C(=O)CC[C@@H]12 [Adrenosterone]
eye size Z-score: -0.41

C[N+]1(C)CCOC(O)(c2ccc(-c3ccc(C4(O)C[N+](C)(C)CCO4)cc3)cc2)C1 (stereo not given) [Hemicholinium bromide]
eye size Z-score: 0.46

Nc1ccncc1 [Dalfampridine]
eye size Z-score: 1.09

CC[C@@H](C(N)=O)N1CCCC1=O [Levetiracetam]
eye size Z-score: 0.36

COc1ccc(C(=O)N2CCCC2=O)cc1 [Aniracetam]
eye size Z-score: -0.15

CCN[C@@H](C)Cc1cccc(C(F)(F)F)c1 [Dexfenfluramine hydrochloride]
eye size Z-score: -0.55

CC(C)=CC1C(C(=O)OCc2cccc(Oc3ccccc3)c2)C1(C)C (stereo not given) [Phenothrin]
eye size Z-score: 1.26

C[CH2][Hg][S]c1ccccc1C(=O)[O-].[Na+] [Thimerosal]
eye size Z-score: 0.31

NC(=O)CN1CC(O)CC1=O (stereo not given) [Oxiracetam]
eye size Z-score: -0.49
